This test deals with von Willebrand factor (human (endogenous in plasma of healthy volunteers)) (UniProt P04275). The test can be described thus: flow cytometry on cells; diluted PRP (1:8 in PBS) with tirofiban 1.25 µg/mL, pre-incubated with peptide (200 µg/mL) 10 min at room temperature, then ristocetin 0.5 mg/mL 6 min; fixed; platelet-bound VWF detected with FITC anti-VWF antibody; read-out is the reduction of VWF on platelets; only the binder purified. (A flow cytometer gives signals particle by particle.)

Chains of the proteins cited; added tags and fusions are not shown. Residues count along the entry.
UniProt P04275, residues 764-2813: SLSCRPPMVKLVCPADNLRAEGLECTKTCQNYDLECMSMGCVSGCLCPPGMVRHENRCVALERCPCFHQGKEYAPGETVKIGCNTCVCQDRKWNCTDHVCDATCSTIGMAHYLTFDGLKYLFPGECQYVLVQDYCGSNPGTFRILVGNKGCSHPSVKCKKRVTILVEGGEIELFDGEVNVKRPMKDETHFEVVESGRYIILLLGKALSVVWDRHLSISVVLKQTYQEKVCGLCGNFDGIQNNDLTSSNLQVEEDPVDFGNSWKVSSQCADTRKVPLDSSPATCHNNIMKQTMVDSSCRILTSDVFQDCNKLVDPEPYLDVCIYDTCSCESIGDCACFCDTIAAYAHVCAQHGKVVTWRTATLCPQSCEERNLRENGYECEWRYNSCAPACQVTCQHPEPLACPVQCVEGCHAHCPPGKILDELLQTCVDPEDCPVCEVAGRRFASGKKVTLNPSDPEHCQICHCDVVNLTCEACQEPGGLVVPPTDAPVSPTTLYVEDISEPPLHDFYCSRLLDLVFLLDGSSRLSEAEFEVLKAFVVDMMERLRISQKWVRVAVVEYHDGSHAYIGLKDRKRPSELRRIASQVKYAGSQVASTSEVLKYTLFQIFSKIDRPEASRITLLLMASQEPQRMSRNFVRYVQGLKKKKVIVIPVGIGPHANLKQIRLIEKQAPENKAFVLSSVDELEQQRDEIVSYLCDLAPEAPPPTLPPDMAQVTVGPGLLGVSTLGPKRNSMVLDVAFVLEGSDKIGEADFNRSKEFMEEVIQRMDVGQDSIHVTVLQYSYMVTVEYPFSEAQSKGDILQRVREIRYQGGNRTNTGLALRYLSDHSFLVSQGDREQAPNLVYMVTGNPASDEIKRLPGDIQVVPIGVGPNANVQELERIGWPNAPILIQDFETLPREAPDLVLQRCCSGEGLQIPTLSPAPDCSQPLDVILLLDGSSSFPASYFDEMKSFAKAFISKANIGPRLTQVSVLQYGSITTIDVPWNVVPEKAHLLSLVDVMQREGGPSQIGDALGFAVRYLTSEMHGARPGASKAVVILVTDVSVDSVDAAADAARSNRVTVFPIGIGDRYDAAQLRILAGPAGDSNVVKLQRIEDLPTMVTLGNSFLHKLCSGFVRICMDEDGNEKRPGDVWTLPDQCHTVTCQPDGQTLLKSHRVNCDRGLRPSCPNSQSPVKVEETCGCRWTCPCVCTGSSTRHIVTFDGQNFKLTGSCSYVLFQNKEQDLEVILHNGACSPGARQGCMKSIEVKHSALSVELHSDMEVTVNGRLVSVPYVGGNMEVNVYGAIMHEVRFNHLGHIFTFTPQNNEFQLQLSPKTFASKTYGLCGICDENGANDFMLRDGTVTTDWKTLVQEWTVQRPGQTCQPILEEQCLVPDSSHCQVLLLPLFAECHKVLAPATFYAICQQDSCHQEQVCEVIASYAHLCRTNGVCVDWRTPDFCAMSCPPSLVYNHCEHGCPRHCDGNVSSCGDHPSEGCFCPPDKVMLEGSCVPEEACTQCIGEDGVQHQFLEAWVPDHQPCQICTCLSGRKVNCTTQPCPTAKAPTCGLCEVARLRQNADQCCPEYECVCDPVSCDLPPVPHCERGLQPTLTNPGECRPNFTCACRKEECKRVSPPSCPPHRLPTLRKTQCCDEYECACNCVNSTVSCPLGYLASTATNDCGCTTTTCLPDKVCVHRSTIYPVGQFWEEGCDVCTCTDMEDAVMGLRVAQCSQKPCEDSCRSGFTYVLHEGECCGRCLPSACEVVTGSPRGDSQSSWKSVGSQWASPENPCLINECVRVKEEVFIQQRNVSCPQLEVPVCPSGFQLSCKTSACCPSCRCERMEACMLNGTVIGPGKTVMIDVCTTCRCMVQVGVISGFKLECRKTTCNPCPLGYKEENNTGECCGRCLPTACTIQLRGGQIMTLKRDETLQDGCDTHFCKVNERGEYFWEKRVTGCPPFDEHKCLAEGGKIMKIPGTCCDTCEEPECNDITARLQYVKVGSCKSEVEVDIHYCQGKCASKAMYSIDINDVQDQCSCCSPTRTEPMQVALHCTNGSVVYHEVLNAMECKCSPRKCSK

These are yes or no findings as the source states them, for the method shown. Some entries that bind do so weakly or less than the wild type.

For EDDNAECAYVEAEGDEARDQRSNCQDED (N-terminal acetyl (Ac-); disulfide bond between residues C7 and C24) [opt-mono-ORbIT], the binding entry is on record as “binds”.
